Assays:
[1] = Nitric oxide (NO) release on incubation with cysteine; settings: 10 μM compound incubated with 5 mM cysteine, 50 min, room temperature
SjTGR = assay: NO production on incubation with SjTGR alone or SjTGR + NADPH; format: biochemical, Schistosoma japonicum; settings: 10 μM compound, 50 min
[2] = system: S. japonica adult worm homogenate supernatant; assay: NO production on incubation with worm homogenate supernatant; parameters: species or system Schistosoma japonicum; settings: 10 μM compound, worm homogenate (100 μg), 50 min

With N#Cc1c(-c2ccc(OCCCOc3ccc(-c4no[n+]([O-])c4C#N)cc3)cc2)no[n+]1[O-] [Compound 21] the NO released [1] was “did not release NO”, the “NO production, SjTGR + NADPH” value (SjTGR; 15 nM SjTGR + 100 μM NADPH) was 5.0 ± 0.3 µM and the “NO production, SjTGR” value (SjTGR; 15 nM SjTGR alone) was 4.8 ± 0.4 µM. The “NO production, Worm homogenate supernatant” value [2] was 9.2 ± 1.8 µM.

From publication PMC4721062, “Oxadiazole-2-oxides may have other functional targets, in addition to SjTGR, through which they cause mortality in Schistosoma japonicum” (Parasites & Vectors, 2016)
